Reference: PubChem BioAssay AID602196 (INSERM, 2012)
This is a random part of about 23,000 deposited reagents. 455 of them (2%) count as active. 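Active includes both protection and sensitisation; some change values fall well beyond the stated -50 to +50 range.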 Entries without a mark were called inactive. Reagents against one gene are numbered here. Not given: the amount of reagent.

Assay: 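Genes whose knock-down alters cisplatin killing of lung cancer cells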
Cell system: human A549 lung cancer cells
Knock-down reagent: siRNA pair against human genes
Time to read-out: 48 h transfection before cisplatin; time from cisplatin to read-out not stated
Challenge: cisplatin at a dose killing half of control-siRNA cells; exact dose and duration not given
Read-out: 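Cisplatin cell death as a shift from the 50% death seen with control siRNA; siRNAs toxic or growth-blocking alone scored 0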
Direction: two-siRNA summed score (-2 to +2): higher = both siRNAs protect from cisplatin killing; -2 means both sensitise; mean protection from cisplatin (shift in death) and protection from cisplatin (shift in death), siRNA C and protection from cisplatin (shift in death), siRNA D: higher = protection from cisplatin killing
Hit rule: 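siRNAs harmful alone (LDH or WST-1) get 0; others get +1 for less and -1 for more cisplatin killing; genes are active when the two siRNAs give the same sign, summing to ±2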
Meaning of the calls: active = both siRNAs shift cisplatin killing the same way; inactive = no consistent shift, or siRNA harmful alone

gene	reagent no.	two-siRNA summed score (-2 to +2)	mean protection from cisplatin (shift in death) (%)	protection from cisplatin (shift in death), siRNA C (%)	protection from cisplatin (shift in death), siRNA D (%)
HAS2 (GeneID 3037)	1	0	-1.4	-10.7	8
CYB5D2 (GeneID 124936)	1	0	39.2	43.6	34.9
LOC400782	1	0	17.2	21.7	12.7
DCPH1 (GeneID 79624)	1	0	-0.5	-1.4	0.4
ASPNAT (GeneID 339983)	1	0	4.2	5.2	3.3
OR52N1 (GeneID 79473)	1	0	-2.9	-9.3	3.6
CDKL1 (GeneID 8814)	1	0	4.7	4.5	5
IMPACT (GeneID 55364)	1	-1	-10.9	-31.2	9.4
PCYT1B (GeneID 9468)	1	-1	-2.7	8.9	-14.3
LOC440789	1	1	21.9	15.4	28.4
BMP10 (GeneID 27302)	1	-1	-0.6	-17	15.9
KANK4 (GeneID 163782)	1	0	10.7	3.4	18
GABARAP (GeneID 11337)	1	0	-11.8	-1.9	-21.8
TMEM38B (GeneID 55151)	1	0	4.9	3.5	6.3
UBXN4 (GeneID 23190)	1	0	12.2	6.2	18.1
BRD9 (GeneID 65980)	1	0	7.7	8.9	6.5
LOC284230	1	0	-6.7	-12.6	-0.8
RERE (GeneID 473)	1	1	9	11.6	6.4
LOC388814	1	0	-5.9	-16.1	4.4
NTRK1 (GeneID 4914)	1	1	17	10.1	23.9
SENP8 (GeneID 123228)	1	0	-0.3	2.2	-2.9
COL25A1 (GeneID 84570)	1	0	15.8	16.4	15.2
LOC345645	1	-1	-8.9	-6.5	-11.4
AZI2 (GeneID 64343)	1	0	15.6	18.1	13.2
LOC402036 (retired record) (GeneID 402036)	1	0	2.5	-13.2	18.3
ABRAXAS2 (GeneID 23172)	1	1	11	-1.2	23.3
LOC439965	1	0	-1.4	-2.1	-0.7
TMEM169 (GeneID 92691)	1	0	-0.9	6.8	-8.6
BBS4 (GeneID 585)	1	0	9.8	5.7	13.9
QRFP (GeneID 347148)	1	0	6.1	-0.8	13
DNAAF3 (GeneID 352909)	1	0	18.5	44.4	-7.4
F5 (GeneID 2153)	1	0	10	8.2	11.7
EID2 (GeneID 163126)	1	0	5.7	13.7	-2.2
MAP6D1 (GeneID 79929)	1	0	3.9	5.3	2.4
FAM124A (GeneID 220108)	1	0	0.4	-20.1	21
ACTR1B (GeneID 10120)	1	1	11.8	8.5	15.1

A portion taken from the entries so far, for reference:
gene	reagent no.	two-siRNA summed score (-2 to +2)	mean protection from cisplatin (shift in death) (%)	protection from cisplatin (shift in death), siRNA C (%)	protection from cisplatin (shift in death), siRNA D (%)
GABARAP (GeneID 11337)	1	0	-11.8	-1.9	-21.8
TMEM38B (GeneID 55151)	1	0	4.9	3.5	6.3
UBXN4 (GeneID 23190)	1	0	12.2	6.2	18.1
BRD9 (GeneID 65980)	1	0	7.7	8.9	6.5
LOC284230	1	0	-6.7	-12.6	-0.8
RERE (GeneID 473)	1	1	9	11.6	6.4
LOC388814	1	0	-5.9	-16.1	4.4
NTRK1 (GeneID 4914)	1	1	17	10.1	23.9
SENP8 (GeneID 123228)	1	0	-0.3	2.2	-2.9
COL25A1 (GeneID 84570)	1	0	15.8	16.4	15.2

The list goes on.
gene	reagent no.	two-siRNA summed score (-2 to +2)	mean protection from cisplatin (shift in death) (%)	protection from cisplatin (shift in death), siRNA C (%)	protection from cisplatin (shift in death), siRNA D (%)
CNOT4 (GeneID 4850)	1	0	-15.4	-17.2	-13.7
LOC283152	1	0	9.6	14.5	4.7
GORASP1 (GeneID 64689)	1	0	2.6	1.6	3.5
LOC388927	1	0	15.9	26.5	5.2
TNFRSF4 (GeneID 7293)	1	0	8.6	3	14.2
DDX23 (GeneID 9416)	1	0	14.2	28.4	-0.1
POU4F3 (GeneID 5459)	1	0	-12	-27.6	3.6
POLR2B (GeneID 5431)	1	0	-6.8	-0.4	-13.1
PLEKHG1 (GeneID 57480)	1	1	8.8	3.5	14.1
TOR4A (GeneID 54863)	1	-1	-13.6	-26.6	-0.7
LOC442529	1	0	7.5	6.2	8.8
LOC390777	1	1	8.4	12.3	4.4
TH (GeneID 7054)	1	0	5.5	2.1	8.9
MRPL22 (GeneID 29093)	1	-1	-8.6	7.4	-24.6
MRPL22 (GeneID 29093)	2	0	14.7	13	16.4
CALM2 (GeneID 805)	1	0	3.8	5.9	1.7
TOMM5 (GeneID 401505)	1	1	15.7	19.4	12
LOC401155	1	1	14.8	12.5	17.1
LOC441749	1	0	12.5	-0.8	25.8
SLC35H1 (GeneID 51006)	1	0	-24.9	-13.6	-36.2
FASTKD2 (GeneID 22868)	1	1	18.9	17.5	20.3
LAD1 (GeneID 3898)	1	1	23.2	14.8	31.6
LOC400652	1	0	16.2	28.3	4.1
TTLL2 (GeneID 83887)	1	0	1.7	2.4	1
TRPM7 (GeneID 54822)	1	0	-1.8	-15.1	11.5
HHLA2 (GeneID 11148)	1	0	10.5	8.9	12.1
PNMA1 (GeneID 9240)	1	1	5.9	22.5	-10.7
LOC400099 (retired record) (GeneID 400099)	1	0	8	15.7	0.3
SLC50A1 (GeneID 55974)	1	0	4.2	7.8	0.7
SNHG17 (GeneID 388796)	1	0	11.9	18.7	5.1
CARD14 (GeneID 79092)	1	0	-2	2.2	-6.2
C2 (GeneID 717)	1	-1	-18	-9.2	-26.8
NUPR2 (GeneID 389493)	1	0	12.7	17.1	8.4
SGCZ (GeneID 137868)	1	1	11.7	13.3	10.2
SORD (GeneID 6652)	1	0	-12.8	-10.6	-15
CHCT1 (GeneID 124773)	1	0	0.5	7.3	-6.4
SEPTIN14 (GeneID 346288)	1	1	13.5	19.6	7.5
